Assay results reported in the supplement of paper PMC4604168 (melanoma cell lines).
This is one part of the list. Single values are uncertain, as repeats are few or missing.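 Cells were imaged in 1,536-well plates, and nuclei stained with an antibody against cleaved PARP were counted against all DNA-stained nuclei to give the apoptosis fraction. Screening doses were chosen to leave most cells alive, and resting and induced cleaved-PARP levels differ strongly between cell lines.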

Experiments:
Assay in all cases: cleaved PARP positive nuclei fraction relative to DMSO control; melanoma cells; higher = more apoptosis
Conditions in all cases: library dose: low library concentration; 72 h
MZ2-MEL = tested on: MZ2-MEL
MeWo = tested on: MeWo
RPMI7951 = tested on: RPMI7951
RVH-421 = tested on: RVH-421
SkMel28 = tested on: SkMel28
SkMel2 = tested on: SkMel2
SkMel30 = tested on: SkMel30
UACC62 = tested on: UACC62
WM115 = tested on: WM115
WM1716 = tested on: WM1716
WM1745 = tested on: WM1745
WM3526 = tested on: WM3526
WM3619 = tested on: WM3619
WM451Lu = tested on: WM451Lu

Compound	cleaved PARP positive nuclei fraction (MZ2-MEL) [%]	cleaved PARP positive nuclei fraction (MeWo) [%]	cleaved PARP positive nuclei fraction (RPMI7951) [%]	cleaved PARP positive nuclei fraction (RVH-421) [%]	cleaved PARP positive nuclei fraction (SkMel28) [%]	cleaved PARP positive nuclei fraction (SkMel2) [%]	cleaved PARP positive nuclei fraction (SkMel30) [%]	cleaved PARP positive nuclei fraction (UACC62) [%]	cleaved PARP positive nuclei fraction (WM115) [%]	cleaved PARP positive nuclei fraction (WM1716) [%]	cleaved PARP positive nuclei fraction (WM1745) [%]	cleaved PARP positive nuclei fraction (WM3526) [%]	cleaved PARP positive nuclei fraction (WM3619) [%]	cleaved PARP positive nuclei fraction (WM451Lu) [%]
N#CC[C@H](C1CCCC1)n1cc(-c2ncnc3[nH]ccc23)cn1 [ruxolitinib] + COc1cc([C@@H]2c3cc4c(cc3[C@@H](O[C@@H]3O[C@@H]5CO[C@@H](C)O[C@H]5[C@H](O)[C@H]3O)[C@H]3COC(=O)[C@H]23)OCO4)cc(OC)c1O [etoposide] (first compound 1 µM, partner dose 0.02 µM)	48.5	80.1	98.3	56.7	74.9	232	77.9	61.3	153	35.5	87.7	203	82.3	57.9
CCCCCCCCCCCCCCCCCCOP(=O)([O-])OC1CC[N+](C)(C)CC1 [Perifosine] + C[C@@H](Oc1cc(-c2cnn(C3CCNCC3)c2)cnc1N)c1c(Cl)ccc(F)c1Cl [Crizotinib] (first compound 0.4 µM, partner dose 0.2 µM)	102	27.2	51.5	212	194	176	68.4	202	155	59.1	75.6	88.7	99	70.4
Cc1cn(-c2cc(NC(=O)c3ccc(C)c(Nc4nccc(-c5cccnc5)n4)c3)cc(C(F)(F)F)c2)cn1 [nilotinib] + Cn1c(Nc2ccc(C(F)(F)F)cc2)nc2cc(Oc3ccnc(-c4ncc(C(F)(F)F)[nH]4)c3)ccc21 [CHIR265] (first compound 0.2 µM, partner dose 0.08 µM)	162	146	64.4	167	78.4	158	194	500	444	68.6	138	66.2	114	88.2
N#CC[C@H](C1CCCC1)n1cc(-c2ncnc3[nH]ccc23)cn1 [ruxolitinib] + O=c1[nH]nc(Sc2ncc([N+](=O)[O-])s2)n1-c1ccc2c(c1)OCCO2 [BI78D3] (first compound 1 µM, partner dose 0.2 µM)	94.5	212	186	85.2	81.3	109	79.5	40.7	54.6	35.9	101	36.1	96	68.5
N#CC[C@H](C1CCCC1)n1cc(-c2ncnc3[nH]ccc23)cn1 [ruxolitinib] + C=C(c1ccc(C(=O)O)cc1)c1cc2c(cc1C)C(C)(C)CCC2(C)C [Bexarotene] (first compound 1 µM, partner dose 2 µM)	163	66.4	56.3	103	43.4	23.6	155	110	54	72	93.6	81.9	98.4	130
Cc1cn(-c2cc(NC(=O)c3ccc(C)c(Nc4nccc(-c5cccnc5)n4)c3)cc(C(F)(F)F)c2)cn1 [nilotinib] + COc1ccc(C2=N[C@@H](c3ccc(Cl)cc3)[C@@H](c3ccc(Cl)cc3)N2C(=O)N2CCNC(=O)C2)c(OC(C)C)c1 [Nutlin-3] (first compound 0.2 µM, partner dose 0.1 µM)	120	35.1	111	64.8	267	42.8	95.8	217	153	102	99	96.9	92.2	82.1
CC[C@]1(O)C[C@H]2CN(CCc3c([nH]c4ccccc34)[C@@](C(=O)OC)(c3cc4c(cc3OC)N(C=O)[C@H]3[C@@](O)(C(=O)OC)[C@H](OC(C)=O)[C@]5(CC)C=CCN6CC[C@]43[C@@H]65)C2)C1 [vincristine] + Nc1ccn([C@@H]2O[C@H](CO)[C@@H](O)C2(F)F)c(=O)n1 [gemcitabine] (first compound 0.0001 µM, partner dose 0.0004 µM)	36.8	104	76.8	78.4	49.5	70.2	152	562	1620	142	113	114	145	301
Cc1cc(Nc2cc(N3CCN(C)CC3)nc(Sc3ccc(NC(=O)C4CC4)cc3)n2)n[nH]1 [Tozasertib] + NC1(c2ccc(-c3nc4ccn5c(=O)[nH]nc5c4cc3-c3ccccc3)cc2)CCC1 [MK2206] (first compound 0.006 µM, partner dose 0.4 µM)	82.1	155	244	155	82.8	15	106	56.6	29.7	173	114	60.1	99.7	34
Cc1cc(Nc2cc(N3CCN(C)CC3)nc(Sc3ccc(NC(=O)C4CC4)cc3)n2)n[nH]1 [Tozasertib] + CC(=O)c1c(C)c2cnc(Nc3ccc(N4CCNCC4)cn3)nc2n(C2CCCC2)c1=O [palbociclib] (first compound 0.006 µM, partner dose 0.04 µM)	65.9	135	131	49.2	86.5	61.9	121	166	218	100	119	68.8	137	117
CCCCCCCCCCCCCCCCCCOP(=O)([O-])OC1CC[N+](C)(C)CC1 [Perifosine] + C=CCNC1=C2C[C@@H](C)C[C@H](OC)[C@H](O)[C@@H](C)/C=C(\C)[C@H](OC(N)=O)[C@@H](OC)/C=C\C=C(/C)C(=O)NC(=CC1=O)C2=O [Tanespimycin] (first compound 0.4 µM, partner dose 0.002 µM)	42	42.6	249	94.1	86	88.8	68.7	53.5	100	147	115	44.5	92.6	164
Cc1cn(-c2cc(NC(=O)c3ccc(C)c(Nc4nccc(-c5cccnc5)n4)c3)cc(C(F)(F)F)c2)cn1 [nilotinib] + NC1(c2ccc(-c3nc4ccn5c(=O)[nH]nc5c4cc3-c3ccccc3)cc2)CCC1 [MK2206] (first compound 0.2 µM, partner dose 0.4 µM)	78.1	49.5	51.3	202	252	103	455	203	161	173	101	25.9	97.3	43.4
O=C(Nc1cc(C(F)(F)F)cc(C(F)(F)F)c1)c1cc(Cl)ccc1O + Nc1cccc2c1CN(C1CCC(=O)NC1=O)C2=O [lenalidomide] (first compound 0.016 µM, partner dose 1 µM)	50.8	113	33.3	86.5	218	46.6	84.4	98.4	74.4	81	74.3	61.6	102	166
O=C(Nc1cc(C(F)(F)F)cc(C(F)(F)F)c1)c1cc(Cl)ccc1O + CCCCCCCCCCCCCCCCCCOP(=O)([O-])OC1CC[N+](C)(C)CC1 [Perifosine] (first compound 0.016 µM, partner dose 0.4 µM)	101	150	82.8	124	74.5	71.2	127	277	159	74.4	93.3	443	101	376
Cc1cc(Nc2cc(N3CCN(C)CC3)nc(Sc3ccc(NC(=O)C4CC4)cc3)n2)n[nH]1 [Tozasertib] + CCCCCCCCCCCCCCCCCCOP(=O)([O-])OC1CC[N+](C)(C)CC1 [Perifosine] (first compound 0.006 µM, partner dose 0.4 µM)	105	88.2	89.7	108	81.2	25.7	23.6	176	146	35.6	88.2	37.8	102	38.7
O=c1[nH]nc(Sc2ncc([N+](=O)[O-])s2)n1-c1ccc2c(c1)OCCO2 + O=C(O)c1ccc2c(c1)nc(Nc1cccc(Cl)c1)c1ccncc12 [CX4945] (first compound 0.2 µM, partner dose 0.4 µM)	213	178	32.3	152	73.2	98.1	73.2	48.8	30.2	154	98.5	72.7	93.3	258
COc1cc([C@@H]2c3cc4c(cc3[C@@H](O[C@@H]3O[C@@H]5CO[C@@H](C)O[C@H]5[C@H](O)[C@H]3O)[C@H]3COC(=O)[C@H]23)OCO4)cc(OC)c1O [etoposide] + CN1CCN(c2ccc3nc(-c4c(N)c5c(F)cccc5[nH]c4=O)[nH]c3c2)CC1 [Dovitinib] (first compound 0.02 µM, partner dose 0.1 µM)	36.4	131	201	49.4	86.1	131	17.7	166	171	54.8	104	20.2	102	113
N#CC[C@H](C1CCCC1)n1cc(-c2ncnc3[nH]ccc23)cn1 [ruxolitinib] + CNC(=O)c1cc(Oc2ccc(NC(=O)Nc3ccc(Cl)c(C(F)(F)F)c3)cc2)ccn1 [sorafenib] (first compound 1 µM, partner dose 0.4 µM)	23.9	135	48.1	88.7	49	95.6	31.2	48.4	91.4	324	88.9	80.4	76	31.4
CC[C@]1(O)C[C@H]2CN(CCc3c([nH]c4ccccc34)[C@@](C(=O)OC)(c3cc4c(cc3OC)N(C=O)[C@H]3[C@@](O)(C(=O)OC)[C@H](OC(C)=O)[C@]5(CC)C=CCN6CC[C@]43[C@@H]65)C2)C1 [vincristine] + Cn1nnc2c(C(N)=O)ncn2c1=O [temozolomide] (first compound 0.0001 µM, partner dose 2 µM)	76.7	246	123	54.9	111	111	220	461	1240	108	99.3	82	150	83.1

Complete entries, quoted from the list. Order of values: cleaved PARP positive nuclei fraction (MZ2-MEL) [%] | cleaved PARP positive nuclei fraction (MeWo) [%] | cleaved PARP positive nuclei fraction (RPMI7951) [%] | cleaved PARP positive nuclei fraction (RVH-421) [%] | cleaved PARP positive nuclei fraction (SkMel28) [%] | cleaved PARP positive nuclei fraction (SkMel2) [%] | cleaved PARP positive nuclei fraction (SkMel30) [%] | cleaved PARP positive nuclei fraction (UACC62) [%] | cleaved PARP positive nuclei fraction (WM115) [%] | cleaved PARP positive nuclei fraction (WM1716) [%] | cleaved PARP positive nuclei fraction (WM1745) [%] | cleaved PARP positive nuclei fraction (WM3526) [%] | cleaved PARP positive nuclei fraction (WM3619) [%] | cleaved PARP positive nuclei fraction (WM451Lu) [%]
CCCCCCCCCCCCCCCCCCOP(=O)([O-])OC1CC[N+](C)(C)CC1 [Perifosine] + C=CCNC1=C2C[C@@H](C)C[C@H](OC)[C@H](O)[C@@H](C)/C=C(\C)[C@H](OC(N)=O)[C@@H](OC)/C=C\C=C(/C)C(=O)NC(=CC1=O)C2=O [Tanespimycin] (first compound 0.4 µM, partner dose 0.002 µM) in the list: 42 | 42.6 | 249 | 94.1 | 86 | 88.8 | 68.7 | 53.5 | 100 | 147 | 115 | 44.5 | 92.6 | 164
N#CC[C@H](C1CCCC1)n1cc(-c2ncnc3[nH]ccc23)cn1 [ruxolitinib] + C=C(c1ccc(C(=O)O)cc1)c1cc2c(cc1C)C(C)(C)CCC2(C)C [Bexarotene] (first compound 1 µM, partner dose 2 µM) in the list: 163 | 66.4 | 56.3 | 103 | 43.4 | 23.6 | 155 | 110 | 54 | 72 | 93.6 | 81.9 | 98.4 | 130
